In the supplement of paper PMC8090911:
Structures can show the parent of a compound that is named as a salt. The list shows a part of the results. Most values come without repeats; read them as rough.

Tested on: p95-ErbB2-MCF7
Test: perinuclear lysosome accumulation (PNLA, size of LAMP2 puncta), robust Z-score vs plate median; higher = more perinuclear lysosome accumulation (reversal of invasive lysosome distribution)
Conditions: 5 µM; 24 h

SMILES | perinuclear lysosome accumulation
O=C1c2c(O)cccc2Cc2cccc(O)c21 [Anthralin] | 0.906
COc1cc(C(=O)OCCCN2CCCN(CCCOC(=O)c3cc(OC)c(OC)c(OC)c3)CC2)cc(OC)c1OC [Dilazep dihydrochloride] | 1.25
Cc1[nH]ccc2c1[nH]c1cc(=O)ccc12 [Harmol hydrochloride monohydrate] | -0.219
CCN(CC)CCOC(=O)C1(C2CCCCC2)CCCCC1 [Dicyclomine hydrochloride] | -0.663
CN1CCN(C2=Nc3ccccc3Oc3ccc(Cl)cc32)CC1 [Loxapine succinate] | -0.69
NCc1ccccc1CC(=O)N[C@@H]1C(=O)N2C(C(=O)O)=C(CSc3nnnn3CC(=O)O)CS[C@H]12 [Ceforanide] | -1.63
N=C(NCCCCCCNC(=N)NC(=N)Nc1ccc(Cl)cc1)NC(=N)Nc1ccc(Cl)cc1 [Chlorhexidine] | 2.05
C[N+]1(C)CCC(OC(=O)C(O)(c2ccccc2)C2CCCC2)C1 (stereo unspecified) [Glycopyrrolate] | -0.775
N#Cc1ccc(C(c2ccc(C#N)cc2)n2cncn2)cc1 [Letrozole] | -0.294
Clc1ccc(CCC(Cn2ccnc2)Sc2c(Cl)cccc2Cl)cc1 (stereo unspecified) [Butoconazole nitrate] | 2.26
O=C(O)Cc1ccc(-c2ccccc2)cc1 [Felbinac] | -0.459
C[C@@H]1C[C@H]2[C@@H]3C[C@H](F)C4=CC(=O)C=C[C@]4(C)[C@@]3(F)[C@@H](O)C[C@]2(C)[C@@]1(O)C(=O)CO [Flumethasone] | -1.42
O=C(O)c1cn(-c2ccc(F)cc2)c2cc(N3CCNCC3)c(F)cc2c1=O [Sarafloxacin] | -0.678
CN1CCC(=C2c3ccccc3C=Cc3ccccc32)CC1 [Cyproheptadine hydrochloride] | -0.0466
N=C(N)NC(=N)NCCc1ccccc1 [Phenformin hydrochloride] | -0.19
CO[C@H]1/C=C/O[C@@]2(C)Oc3c(C)c(O)c4c(O)c(c(/C=N/N5CCN(C6CCCC6)CC5)c(O)c4c3C2=O)NC(=O)/C(C)=C\C=C\[C@H](C)[C@H](O)[C@@H](C)[C@@H](O)[C@@H](C)[C@H](OC(C)=O)[C@@H]1C [Rifapentine] | -0.99
CC(C)(C)NC[C@@H](O)COc1cccc2c1CCCC2=O [(+) -Levobunolol hydrochloride] | -0.00176
C[C@H]1O[C@H](O[C@H]2[C@H](O)[C@@H](O)[C@@H](O[C@H]3[C@H](O)[C@@H](O)C(O)O[C@@H]3CO)O[C@@H]2CO)[C@H](O)[C@@H](O)[C@@H]1N[C@H]1C=C(CO)[C@@H](O)[C@H](O)[C@H]1O (stereo partly specified) [Acarbose] | 1.18
C=C1CC[C@H](O)C/C1=C/C=C1\CCC[C@]2(C)[C@@H]([C@H](C)CCCC(C)C)CC[C@@H]12 [Cholecalciferol] | -0.581
CCCc1cc(C(N)=S)ccn1 [Prothionamide] | 0.474
CC(=O)S[C@@H]1CC2=CC(=O)CC[C@]2(C)[C@H]2CC[C@@]3(C)[C@@H](CC[C@@]34CCC(=O)O4)[C@H]12 [Spironolactone] | -1.35
CC(Cc1cccc(C(F)(F)F)c1)NCCOC(=O)c1ccccc1 (stereo unspecified) [Benfluorex hydrochloride] | 0.313
C=CC(N)CCC(=O)O (stereo unspecified) [Vigabatrin] | -3.59
NS(=O)(=O)c1cc(C2(O)NC(=O)c3ccccc32)ccc1Cl (stereo unspecified) [Chlorthalidone] | -0.568

SMILES | perinuclear lysosome accumulation
CCN[C@H]1CN(CCCOC)S(=O)(=O)c2sc(S(N)(=O)=O)cc21 [Brinzolamide] | -0.688
CC(=O)OCC(=O)[C@@]1(O)CC[C@H]2[C@@H]3CCC4=CC(=O)CC[C@]4(C)[C@H]3[C@@H](O)C[C@@]21C [Cortisol acetate] | -2.63
CC(C)c1c(C(=O)Nc2ccccc2)c(-c2ccccc2)c(-c2ccc(F)cc2)n1CC[C@@H](O)C[C@@H](O)CC(=O)O [Atorvastatin] | -1.17
Cc1ccc(C(=O)c2ccc(CC(=O)O)n2C)cc1 [Tolmetin sodium salt dihydrate] | 0.428
COC(=O)Nc1nc2cc(C(=O)c3cccs3)ccc2[nH]1 [Nocodazole] | 3.73
CCCCN(CCCC)CCCOC(=O)c1ccc(N)cc1 [Butacaine] | -1.29
CC[N+](C)(CC)CCOC(=O)C1c2ccccc2Oc2ccccc21 [Methantheline bromide] | 0.502
CC(=O)OCC(=O)[C@@]1(O)CC[C@H]2[C@@H]3CCC4=CC(=O)CC[C@]4(C)[C@@]3(F)[C@@H](O)C[C@@]21C [Fludrocortisone acetate] | -0.224
OC(Cn1cncn1)(Cn1cncn1)c1ccc(F)cc1F [Fluconazole] | -0.113
CCCOc1cc(N)ccc1C(=O)OCCN(CC)CC [Propoxycaine hydrochloride] | -0.795
CC[N+](C)(C)c1cccc(O)c1 [Edrophonium chloride] | -0.479
CC(C(=O)O)c1cccc(Oc2ccccc2)c1 (stereo unspecified) [Fenoprofen calcium salt dihydrate] | 2.16
CCCc1ncc(C[n+]2ccccc2C)c(N)n1 [Amprolium hydrochloride] | -1.09
CCn1cc(C(=O)O)c(=O)c2cc(F)c(N3CCNCC3)nc21 [Enoxacin] | 1.16
CC(=O)OCC(=O)NCCCOc1cccc(CN2CCCCC2)c1 [Roxatidine Acetate HCl] | 0.73
CC(C)(C)C(=O)OCOC(=O)[C@@H]1N2C(=O)[C@@H](/N=C/N3CCCCCC3)[C@H]2SC1(C)C [Pivmecillinam hydrochloride] | -2.01
OCC(O)CN1CCN(c2ccccc2)CC1 (racemic) [Dropropizine (R,S)] | 1.55
CNc1ncnc2c1ncn2[C@@H]1O[C@H](CO)[C@@H](O)[C@H]1O [N6-methyladenosine] | -0.429
c1ccc2c(c1)CCCC2C1=NCCN1 (stereo unspecified) [Tetrahydrozoline hydrochloride] | 0.784
C[C@@H](O)[C@H]1C(=O)N2C(C(=O)O)=C(SCCNC=N)C[C@H]12 [Imipenem] | 0.815
CCCCCN(C)CCC(O)(P(=O)(O)O)P(=O)(O)O [Ibandronate] | 1.01
C1N2CN3CN1CN(C2)C3 [Methenamine] | 0.769
O=C1NCCN1c1ncc([N+](=O)[O-])s1 [Niridazole] | -0.804
C=C(CC)C(=O)c1ccc(OCC(=O)O)c(Cl)c1Cl [Ethacrynic acid] | -1.13

SMILES | perinuclear lysosome accumulation
Nc1ccc(S(=O)(=O)NC(=O)c2ccccc2)cc1 [Sulfabenzamide] | 0.828
CCN(CC)CCCC(C)Nc1ccnc2cc(Cl)ccc12 (stereo unspecified) [Chloroquine diphosphate] | 0.794
CN(C)[C@@H]1C(O)=C(C(N)=O)C(=O)[C@@]2(O)C(O)=C3C(=O)c4c(O)cccc4[C@@](C)(O)[C@H]3C[C@@H]12 [Tetracycline hydrochloride] | -0.0826
C[C@]12CCC(=O)C=C1CC[C@@H]1[C@@H]2C(=O)C[C@@]2(C)[C@H]1CC[C@]2(O)C(=O)CO [Cortisone] | -1.2
COCCCC/C(=N\OCCN)c1ccc(C(F)(F)F)cc1 [Fluvoxamine maleate] | 0.952
OCCN1CCN(CCCN2c3ccccc3Sc3ccc(C(F)(F)F)cc32)CC1 [Fluphenazine dihydrochloride] | 3.09
CC(C)(Oc1ccc(CCNC(=O)c2ccc(Cl)cc2)cc1)C(=O)O [Bezafibrate] | 0.922
c1ccc(CC2=NCCN2)cc1 [Tolazoline hydrochloride] | -0.286
O=C1c2ccccc2C(=O)C1c1ccccc1 [Phenindione] | 0.607
Clc1ccc2c(c1)C(N1CCNCC1)=Nc1ccccc1O2 [Amoxapine] | 0.208
CC[C@H]1OC(=O)[C@H](C)[C@@H](O[C@H]2C[C@@](C)(OC)[C@@H](O)[C@H](C)O2)[C@H](C)[C@@H](O[C@@H]2O[C@H](C)C[C@H](N(C)C)[C@H]2O)[C@](C)(O)C[C@@H](C)C(=O)[C@H](C)[C@@H](O)[C@]1(C)O [Erythromycin] | -4.03
CO[C@H]1/C=C/O[C@@]2(C)Oc3c(C)c(O)c4c(O)c(c(/C=N/N5CCN(C)CC5)c(O)c4c3C2=O)NC(=O)/C(C)=C\C=C\[C@H](C)[C@H](O)[C@@H](C)[C@@H](O)[C@@H](C)[C@H](OC(C)=O)[C@@H]1C [Rifampicin] | -1.47
CCCSc1ccc2[nH]c(NC(=O)OC)nc2c1 [Albendazole] | -0.935
Cc1c(Cl)cccc1Nc1ccccc1C(=O)O [Tolfenamic acid] | 0.229
Cc1ccc(N(CC2=NCCN2)c2cccc(O)c2)cc1 [Phentolamine hydrochloride] | 1.22
CCc1ccc(CCOc2ccc(CC3SC(=O)NC3=O)cc2)nc1 (stereo unspecified) [Pioglitazone] | -0.613
CO[C@@]1(NC(=O)C(C(=O)O)c2ccc(O)cc2)C(=O)N2C(C(=O)O)=C(CSc3nnnn3C)CO[C@@H]21 (stereo partly specified) [Moxalactam disodium salt] | -0.424
C#C[C@]1(O)CC[C@H]2[C@@H]3CCC4=CC(=O)CC[C@@H]4[C@H]3CC[C@@]21C [Norethindrone] | -0.627
C#C[C@]1(OC(C)=O)CC[C@H]2[C@@H]3CCC4=C[C@@H](OC(C)=O)CC[C@@H]4[C@H]3CC[C@@]21C [Ethynodiol diacetate] | -0.518
Nc1ccc(S(=O)(=O)Nc2ncccn2)cc1 [Sulfadiazine] | -0.896
Nc1ccc(O)c(C(=O)O)c1 [Mesalamine] | -0.364
CCN(CC)CCOC(=O)C1(c2ccc([N+](=O)[O-])cc2)CCCC1 [Nitrocaramiphen hydrochloride] | -2.43
CO[C@@]1(NC(=O)C2SC(=C(C(N)=O)C(=O)O)S2)C(=O)N2C(C(=O)O)=C(CSc3nnnn3C)CS[C@@H]21 (stereo partly specified) [Cefotetan] | 0.06

Taken from above:
Entry for Cc1c(Cl)cccc1Nc1ccccc1C(=O)O [Tolfenamic acid] under perinuclear lysosome accumulation: 0.229
Entry for C#C[C@]1(O)CC[C@H]2[C@@H]3CCC4=CC(=O)CC[C@@H]4[C@H]3CC[C@@]21C [Norethindrone] under perinuclear lysosome accumulation: -0.627
Entry for CC[C@H]1OC(=O)[C@H](C)[C@@H](O[C@H]2C[C@@](C)(OC)[C@@H](O)[C@H](C)O2)[C@H](C)[C@@H](O[C@@H]2O[C@H](C)C[C@H](N(C)C)[C@H]2O)[C@](C)(O)C[C@@H](C)C(=O)[C@H](C)[C@@H](O)[C@]1(C)O [Erythromycin] under perinuclear lysosome accumulation: -4.03
